# Results: the supplement of paper PMC8256030
# “And” between values parts separate entries of the source, which are not always exact repeats. Equal values may be shown once. Some of the results follow. Repeats in this data set agree poorly, so a single value says little.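 HEK293T cells were given each compound shortly before transfection with a reporter in which red mCherry is followed by the SARS-CoV-2 frameshift element and then GFP in the −1 frame, so GFP appears only after frameshifting.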
# Test system: HEK293T
# Experiment: percent viability (nuclei count) relative to control; higher = more viable cells
# Conditions: 10 µM; 24 h
row,SMILES,percent viability
1,Cc1ncc([N+](=O)[O-])n1C,339%
2,CN(C)CCOC(c1ccccc1)c1ccccc1 [diphenhydramine],275% and 144%
3,C[C@@H]1C[C@H]2[C@@H]3CCC4=CC(=O)C=C[C@]4(C)[C@@]3(F)[C@@H](O)C[C@]2(C)[C@H]1C(=O)CO [desoximetasone],196%
4,O=C(O)Cn1c(C(=O)Nc2nc(-c3ccccc3Cl)cs2)cc2ccccc21 [lintitript],104%
5,Cc1oncc1C(=O)Nc1ccc(C(F)(F)F)cc1 [leflunomide],254% and 179%
6,CC(=O)c1ccc2c(c1)C(=O)C1(CC1)O2 [spizofurone],168%
7,O=C1CN(/N=C/c2ccc(-c3ccc([N+](=O)[O-])cc3)o2)C(=O)N1 [dantrolene],198%
8,N[C@@H](CCC(=O)O)C(=O)O [glutamic acid],169%
9,Cc1cnc(C(=O)NCCc2ccc(S(=O)(=O)NC(=O)NC3CCCCC3)cc2)cn1 [Glipizide],120%
10,Cc1scc2c1N(C(=O)CN1CCN(C)CC1)c1ccccc1NC2=O [Telenzepine·2HCl],124%
11,O=C1c2cccc(O)c2C(=O)c2c(O)cccc21 [dantron],148%
12,NC(=O)c1cc[n+](CC2=C(C(=O)[O-])N3C(=O)[C@@H](NC(=O)Cc4cccs4)[C@H]3SC2)cc1,245%
13,NC(CSSCC(N)C(=O)O)C(=O)O (centres undefined),46.7%
14,CC[C@@]1(O)C(=O)OCc2c1cc1n(c2=O)Cc2cc3c(CN(C)C)c(O)ccc3nc2-1 [topotecan],47.6%
15,O=[N+]([O-])c1cncn1CCN1CCOCC1 [nimorazole],41%
16,CN(C)CCC(c1ccc(Br)cc1)c1ccccn1 (centres undefined),58.3%
17,C[N+]1(C)CCC(OC(=O)C(O)(c2ccccc2)C2CCCC2)C1 (centres undefined),120%
18,CNCCCC1(c2ccccc2)SC(C)(C)c2ccccc21 (centres undefined) [talsupram],164%
19,C/C(=C\c1csc(C)n1)[C@@H]1C[C@@H]2O[C@]2(C)CCC[C@H](C)[C@H](O)[C@@H](C)C(=O)C(C)(C)[C@@H](O)CC(=O)N1 [ixabepilone],13.1%
20,CC[C@H]1OC(=O)[C@H](C)[C@@H](O[C@H]2C[C@@](C)(OC)[C@@H](O)[C@H](C)O2)[C@H](C)[C@@H](O[C@@H]2O[C@H](C)C[C@H](N(C)C)[C@H]2O)[C@](C)(O)C[C@@H](C)[C@@H]2N[C@@H](COCCOC)O[C@H]([C@H]2C)[C@]1(C)O [dirithromycin],347% and 174% and 190%
21,CCOC(=O)[N-]c1c[n+](N2CCOCC2)no1 [Molsidomine],177%
22,CC(=O)Nc1c(I)c(NC(C)=O)c(I)c(C(=O)O)c1I [sodium amidotrizoate],158%
23,CN1CCC(Nc2ncc3ncnc(Nc4ccc(F)c(Cl)c4)c3n2)CC1 [falnidamol],259%
24,Clc1ccc(Nc2nnc(Cc3ccncc3)c3ccccc23)cc1 [vatalanib],240%
25,OC(c1cc(C(F)(F)F)nc2c(C(F)(F)F)cccc12)C1CCCCN1 (centres undefined) [mefloquine],434%
26,Cc1cccc(C)c1NC(=O)CN(CC(=O)O)CC(=O)O [lidofenin],96.9%
27,NC(=O)C1(N2CCCCC2)CCN(CCCC(=O)c2ccc(F)cc2)CC1 [pipamperone],212%
28,COCCCOc1cc(C[C@@H](C[C@H](N)[C@@H](O)C[C@H](C(=O)NCC(C)(C)C(N)=O)C(C)C)C(C)C)ccc1OC,229%
29,CC1(C)C[C@@H]1C(=O)N/C(=C\CCCCSC[C@H](N)C(=O)O)C(=O)O [Cilastatin],200%

# Some of the entries so far, with tabs:
row	SMILES	percent viability
18	CNCCCC1(c2ccccc2)SC(C)(C)c2ccccc21 (centres undefined) [talsupram]	164%
19	C/C(=C\c1csc(C)n1)[C@@H]1C[C@@H]2O[C@]2(C)CCC[C@H](C)[C@H](O)[C@@H](C)C(=O)C(C)(C)[C@@H](O)CC(=O)N1 [ixabepilone]	13.1%
